Test results published in the supplement of paper PMC4635364.
Counter-ions that a name gives are not always drawn. This is one part of the list. Single values are uncertain here, since repeats match poorly.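 Human fetal ventral-midbrain neural progenitor line ReNCell VM, differentiated without mitogens. Images stained for doublecortin (early neurons) or tyrosine hydroxylase (dopaminergic neurons) were scored by blinded raters against untreated wells (0 = no change). Repeats and both raters were averaged, and compounds averaging 2 or higher were picked as hits for retesting.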

Tests used:
ReNCell VM [1] = test: neuronal differentiation score (DCX+ cell fraction vs untreated, manual image score) (score (-3 to 3)); higher = more neuronal differentiation; conditions: 2 uM, 2 weeks
ReNCell VM [2] = test: dopaminergic neuron differentiation score (TH+ cell fraction vs untreated, manual image score) (score (0 to 3)); higher = more TH+ dopaminergic neuron differentiation; conditions: 2 uM, 4 weeks, BDNF 10 ng/ml + GDNF 10 ng/ml

SMILES: O=C(Oc1ccccc1C(=O)O)c1ccccc1O
- neuronal differentiation score (ReNCell VM [1]; library: Spectrum): inactive: 1
- dopaminergic neuron differentiation score (ReNCell VM [2]; library: Spectrum): inactive: 0

SMILES: CC1(C)C[C@@H]2/C(CO)=C\C=C/[C@@](C)(O)CC[C@]21O
- neuronal differentiation score (ReNCell VM [1]; library: Spectrum): inactive: 0
- dopaminergic neuron differentiation score (ReNCell VM [2]; library: Spectrum): inactive: 0

SMILES: Nc1ncnc2nc(-c3ccc(N4CCOCC4)nc3)cc(-c3cccc(Br)c3)c12 [ABT 702 dihydrochloride]
- neuronal differentiation score (ReNCell VM [1]; library: Tocriscreen): inactive: 0
- dopaminergic neuron differentiation score (ReNCell VM [2]; library: Tocriscreen): inactive: 0

SMILES: COc1cccc(OC)c1OCCNCC1COc2ccccc2O1 (centres undefined) [WB-4101 hydrochloride]
- neuronal differentiation score (ReNCell VM [1]; library: LOPAC): inactive: 0
- dopaminergic neuron differentiation score (ReNCell VM [2]; library: LOPAC): inactive: 0

SMILES: C[C@H]1CCC2[C@](C)(CO)[C@@H](O)CC[C@]2(C)[C@@]12CCC(CO)(CCO)O2 (some centres undefined) [9,13-epoxy-3,15,16,18-labdanetetrol]
- neuronal differentiation score (ReNCell VM [1]; library: Natural): inactive: 0
- dopaminergic neuron differentiation score (ReNCell VM [2]; library: Natural): inactive: 0

SMILES: COc1cccc2c1CCC1CC(=O)CC[C@]21C (some centres undefined)
- neuronal differentiation score (ReNCell VM [1]; library: Spectrum): inactive: 0
- dopaminergic neuron differentiation score (ReNCell VM [2]; library: Spectrum): inactive: 0

SMILES: O=c1c(O)c(-c2ccc(O)c(O)c2)oc2cc(O)cc(O)c12 [Quercetin dihydrate]
- neuronal differentiation score (ReNCell VM [1]; library: LOPAC): inactive: 0
- dopaminergic neuron differentiation score (ReNCell VM [2]; library: LOPAC): inactive: 0

SMILES: C=C1CC[C@H](O)C/C1=C/C=C1\CCC[C@]2(C)[C@@H]([C@H](C)/C=C/[C@H](C)C(C)C)CC[C@@H]12 [Calciferol]
- neuronal differentiation score (ReNCell VM [1]; library: Phytochemical): inactive: 0
- dopaminergic neuron differentiation score (ReNCell VM [2]; library: Phytochemical): inactive: 0

SMILES: CS(=O)(=O)Nc1c(O)ccc2c1CCCC2C1=NCCN1 (centres undefined)
- neuronal differentiation score (ReNCell VM [1]; library: Tocriscreen): inactive: 0
- dopaminergic neuron differentiation score (ReNCell VM [2]; library: Tocriscreen): inactive: 0

SMILES: COC(=O)C(OC)=C(OC)c1ccccc1OC
- neuronal differentiation score (ReNCell VM [1]; library: Spectrum): inactive: 0
- dopaminergic neuron differentiation score (ReNCell VM [2]; library: Spectrum): inactive: 0

SMILES: [Cl-].[Li+] [Lithium Chloride]
- neuronal differentiation score (ReNCell VM [1]; library: LOPAC): inactive: 0
- dopaminergic neuron differentiation score (ReNCell VM [2]; library: LOPAC): inactive: 0

SMILES: O=C1Nc2ccccc2/C1=C1/Nc2ccccc2C1=O [Indirubin]
- neuronal differentiation score (ReNCell VM [1]; library: Phytochemical): inactive: 1
- dopaminergic neuron differentiation score (ReNCell VM [2]; library: Phytochemical): inactive: 0

SMILES: CO/N=C(\C(=O)N[C@@H]1C(=O)N2C(C(=O)O)=C(CSc3nc(=O)c(O)nn3C)CS[C@H]12)c1csc(N)n1
- neuronal differentiation score (ReNCell VM [1]; library: Spectrum): inactive: 0
- dopaminergic neuron differentiation score (ReNCell VM [2]; library: Spectrum): inactive: 0

SMILES: CC1Cc2ccccc2N1NC(=O)c1ccc(Cl)c(S(N)(=O)=O)c1 (centres undefined) [Indapamide]
- neuronal differentiation score (ReNCell VM [1]; library: Prestwick): inactive: 0
- dopaminergic neuron differentiation score (ReNCell VM [2]; library: Prestwick): inactive: 0

SMILES: C[C@@]1(O)CCOC(=O)C1
- neuronal differentiation score (ReNCell VM [1]; library: Spectrum): inactive: 0
- dopaminergic neuron differentiation score (ReNCell VM [2]; library: Spectrum): inactive: 0

SMILES: COc1cc2c(cc1OC)Cc1cc(OC)c(OC)cc1Cc1cc(OC)c(OC)cc1C2
- neuronal differentiation score (ReNCell VM [1]; library: Spectrum): inactive: 0
- dopaminergic neuron differentiation score (ReNCell VM [2]; library: Spectrum): inactive: 0

SMILES: N#Cc1ccc2c(c1)N(CCCN1CCC(O)CC1)c1ccccc1S2
- neuronal differentiation score (ReNCell VM [1]; library: Spectrum): inactive: 0
- dopaminergic neuron differentiation score (ReNCell VM [2]; library: Spectrum): inactive: 0

SMILES: C=CC1=C(C(=O)O)N2C(=O)[C@@H](NC(=O)/C(=N\O)c3csc(N)n3)[C@H]2SC1
- neuronal differentiation score (ReNCell VM [1]; library: Spectrum): inactive: 0
- dopaminergic neuron differentiation score (ReNCell VM [2]; library: Spectrum): inactive: 0

SMILES: CO[C@H]1/C=C/O[C@@]2(C)Oc3c(C)c(O)c4c(c3C2=O)C2=NC3(CCN(CC(C)C)CC3)NC2=C(NC(=O)/C(C)=C\C=C\[C@H](C)[C@H](O)[C@@H](C)[C@@H](O)[C@@H](C)[C@H](OC(C)=O)[C@@H]1C)C4=O [Rifabutin]
- neuronal differentiation score (ReNCell VM [1]; library: Prestwick): inactive: 0
- dopaminergic neuron differentiation score (ReNCell VM [2]; library: Prestwick): inactive: 0

SMILES: C=C1C[C@@]23CC[C@H]4[C@@](C)(CCC[C@@]4(C)C(=O)O[C@@H]4O[C@H](CO)[C@@H](O)[C@H](O)[C@H]4O)[C@@H]2CC[C@]1(O[C@@H]1O[C@H](CO)[C@@H](O)[C@H](O)[C@H]1O[C@@H]1O[C@H](CO)[C@@H](O)[C@H](O)[C@H]1O)C3 [Stevioside]
- neuronal differentiation score (ReNCell VM [1]; library: Phytochemical): inactive: 0
- dopaminergic neuron differentiation score (ReNCell VM [2]; library: Phytochemical): inactive: 0

SMILES: O=C(O)CC1NC(=O)C(Cc2ccccc2)NC1=O (centres undefined) [5-benzyl-3,6-dioxo-2-piperazineacetic acid]
- neuronal differentiation score (ReNCell VM [1]; library: Natural): inactive: 0
- dopaminergic neuron differentiation score (ReNCell VM [2]; library: Natural): inactive: 0

SMILES: CCCC(=O)Nc1ncnc2c1ncn2[C@@H]1O[C@@H]2COP(=O)(O)O[C@H]2[C@H]1OC(=O)CCC
- neuronal differentiation score (ReNCell VM [1]; library: Spectrum): inactive: 0
- dopaminergic neuron differentiation score (ReNCell VM [2]; library: Spectrum): inactive: 0

SMILES: CCN(CC)CC#CCOC(=O)C(O)(c1ccccc1)C1CCCCC1 (centres undefined) [Oxybutynin Chloride]
- neuronal differentiation score (ReNCell VM [1]; library: LOPAC): inactive: 0
- dopaminergic neuron differentiation score (ReNCell VM [2]; library: LOPAC): inactive: 0

SMILES: C[n+]1cc2c3c(ccc2c2ccc4cc5c(cc4c21)OCO5)OCO3 [Sanguinarine]
- neuronal differentiation score (ReNCell VM [1]; library: Phytochemical): inactive: 0
- dopaminergic neuron differentiation score (ReNCell VM [2]; library: Phytochemical): inactive: 0

SMILES: NCc1ccc(S(N)(=O)=O)cc1 [Mafenide hydrochloride]
- neuronal differentiation score (ReNCell VM [1]; library: Prestwick): inactive: 0
- dopaminergic neuron differentiation score (ReNCell VM [2]; library: Prestwick): inactive: 0

SMILES: CC(=O)OCC(=O)NCCCOc1cccc(CN2CCCCC2)c1 [Roxatidine Acetate HCl]
- neuronal differentiation score (ReNCell VM [1]; library: Prestwick): inactive: 0
- dopaminergic neuron differentiation score (ReNCell VM [2]; library: Prestwick): inactive: 0

SMILES: O=C(c1ccc2c(c1)OCCO2)N1CCCCC1
- neuronal differentiation score (ReNCell VM [1]; library: LOPAC): inactive: 0
- dopaminergic neuron differentiation score (ReNCell VM [2]; library: LOPAC): inactive: 0

SMILES: CC(C(=O)O)c1ccc(C(=O)c2cccs2)cc1 (centres undefined) [Suprofen]
- neuronal differentiation score (ReNCell VM [1]; library: Prestwick): inactive: 0
- dopaminergic neuron differentiation score (ReNCell VM [2]; library: Prestwick): inactive: 0

SMILES: CC(=O)O[C@@H]1CC2C(C)(CC[C@H](O)C2(C)C)C2CC[C@]3(C)C(=CC(=O)O[C@H]3c3ccoc3)C21C (stereo partly drawn) [3beta-HYDROXYDEOXODIHYDRODEOXYGEDUNIN]
- neuronal differentiation score (ReNCell VM [1]; library: Spectrum): inactive: -1
- dopaminergic neuron differentiation score (ReNCell VM [2]; library: Spectrum): inactive: 0

SMILES: COc1ccc2[nH]c3c(c2c1)CCNC3=O [1,2,3,4-tetrahydro-6-methoxy-1-oxo-beta-carboline]
- neuronal differentiation score (ReNCell VM [1]; library: Natural): inactive: 0
- dopaminergic neuron differentiation score (ReNCell VM [2]; library: Natural): inactive: 0

SMILES: CCCc1c(OCC(O)COc2ccc3c(=O)cc(C(=O)O)oc3c2CCC)ccc(C(C)=O)c1O (centres undefined)
- neuronal differentiation score (ReNCell VM [1]; library: Tocriscreen): inactive: 0
- dopaminergic neuron differentiation score (ReNCell VM [2]; library: Tocriscreen): inactive: 0

SMILES: CN1CCN(C2=Nc3cc(Cl)ccc3Nc3ccccc32)CC1
- neuronal differentiation score (ReNCell VM [1]; library: Spectrum): inactive: 0
- dopaminergic neuron differentiation score (ReNCell VM [2]; library: Spectrum): inactive: 0

SMILES: NC(=O)c1cc[n+](CC2=C(C(=O)[O-])N3C(=O)[C@@H](NC(=O)Cc4cccs4)[C@H]3SC2)cc1
- neuronal differentiation score (ReNCell VM [1]; library: Spectrum): inactive: 0
- dopaminergic neuron differentiation score (ReNCell VM [2]; library: Spectrum): inactive: 0

SMILES: CC1=CC(=O)NS(=O)(=O)O1
- neuronal differentiation score (ReNCell VM [1]; library: Spectrum): inactive: 0
- dopaminergic neuron differentiation score (ReNCell VM [2]; library: Spectrum): inactive: 0

SMILES: CCCNC(=O)NS(=O)(=O)c1ccc(Cl)cc1
- neuronal differentiation score (ReNCell VM [1]; library: Spectrum): inactive: 0
- dopaminergic neuron differentiation score (ReNCell VM [2]; library: Spectrum): inactive: 0

SMILES: COc1ccc(C(=O)NCc2ccc(OCCN(C)C)cc2)cc1OC [Itopride]
- neuronal differentiation score (ReNCell VM [1]; library: Prestwick): inactive: 0
- dopaminergic neuron differentiation score (ReNCell VM [2]; library: Prestwick): inactive: 0

SMILES: C=C[C@H]1[C@H](O[C@@H]2O[C@H](CO)[C@@H](O)[C@H](O)[C@H]2O)OC=C2C(=O)NCC[C@H]21 [Bakankosine]
- neuronal differentiation score (ReNCell VM [1]; library: Phytochemical): inactive: -1
- dopaminergic neuron differentiation score (ReNCell VM [2]; library: Phytochemical): inactive: 0
